Where a sequence shows no end group, the ends are not given.

This data set can be described thus: general procedure: Fmoc solid-phase peptide synthesis; Rink Amide Pro-Tide resin (0.56 mmol/g); DIC / Oxyma Pure. The note with it: whole synthesis, scale of the general procedure 0.1 mmol.
As to CHWYGYTPQNVI, the “crude LC-MS purity” value is on record as “purity 98%”. Regarding NCVVGYIGERCQ, the “crude LC-MS purity” value is recorded as “purity 99%”. For the sequence CHWYGYTPENVI, the “crude LC-MS purity” value is “purity 99%”.
